Values quoted from earlier work as cited in patent US20110105387A1 (priority 2009, published 2011).

CO[C@H]1C[C@@H]2CC[C@@H](C)[C@@](O)(O2)C(=O)C(=O)N2CCCC[C@H]2C(=O)O[C@H]([C@H](C)C[C@@H]2CC[C@@H](O)[C@H](OC)C2)CC(=O)[C@H](C)/C=C(\C)[C@@H](O)[C@@H](OC)C(=O)[C@H](C)C[C@H](C)/C=C/C=C/C=C/1C [rapamycin]
solubility in water: insoluble
